From US20190112365A1
Results are given in words; binding and its absence hold for the method and conditions named. Some entries that bind do so weakly or less than the wild type.

Sequences of proteins named here, by UniProt entry; tags and fusion partners are left off. A change or cut given only in a name is not applied to a line headed by its entry.
UniProt P10636: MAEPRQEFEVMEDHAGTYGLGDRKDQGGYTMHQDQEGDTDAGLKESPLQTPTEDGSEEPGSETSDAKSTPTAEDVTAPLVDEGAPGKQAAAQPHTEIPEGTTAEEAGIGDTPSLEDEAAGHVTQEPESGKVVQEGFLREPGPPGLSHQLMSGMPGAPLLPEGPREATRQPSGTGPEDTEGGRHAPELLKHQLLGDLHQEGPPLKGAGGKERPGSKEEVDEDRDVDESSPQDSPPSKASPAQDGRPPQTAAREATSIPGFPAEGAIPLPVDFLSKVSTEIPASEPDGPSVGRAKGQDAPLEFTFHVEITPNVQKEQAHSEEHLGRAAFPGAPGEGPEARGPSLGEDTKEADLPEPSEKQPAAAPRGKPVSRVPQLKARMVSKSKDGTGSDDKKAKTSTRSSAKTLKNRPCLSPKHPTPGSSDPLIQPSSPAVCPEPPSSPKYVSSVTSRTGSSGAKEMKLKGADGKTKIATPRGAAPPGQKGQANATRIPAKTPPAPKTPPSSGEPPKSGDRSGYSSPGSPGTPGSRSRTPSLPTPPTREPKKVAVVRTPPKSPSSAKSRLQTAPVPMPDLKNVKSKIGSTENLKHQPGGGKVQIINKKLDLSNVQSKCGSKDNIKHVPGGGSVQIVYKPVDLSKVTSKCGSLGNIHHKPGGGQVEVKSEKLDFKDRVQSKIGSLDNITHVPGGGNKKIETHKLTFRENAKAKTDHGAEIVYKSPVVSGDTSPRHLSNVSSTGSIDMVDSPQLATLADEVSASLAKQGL

Biological target: Human Tau 2N4R, wild type, recombinant full length (human) (UniProt P10636)
Assay: direct ELISA on coated 2N4R Tau

- binding: binds
B1: 7G6-HCzu11-LCzu12 (antibody, human IgG1, kappa, V domains shown)
VH: EVQLLESGGGLVQPGGSLRLSCAASGYTFTTYWITWVRQAPGKGLEWVSDIYPGSSICNYNEKFKSRFTISRDNSKNTLYLQMNSLRAEDTAVYYCAKEDGYDAWFAYWGQGTLVTVSS
VL: DVQMTQSPSSLSASVGDRVTITCRSSQSILHSNGNTYLEWYQQKPGKAPKLLICKVSNRFSGVPSRFSGSGSGTDFTLTISSLQPEDFATYYCFQGSHVPFTFGQGTKLEIKR
